Test results as given in article PMC12474859.
Results are given in words; binding and its absence hold for the method and conditions named. In cells and extracts the contact can be indirect. Some binding calls cover weakened binding; strength is not graded here. Tags and fused reporters may be left off the sequences shown.

Amino acid sequences for entries named in this document (tags omitted). A change or cut given only in a name is not applied to a line headed by its entry.
UniProt P20585: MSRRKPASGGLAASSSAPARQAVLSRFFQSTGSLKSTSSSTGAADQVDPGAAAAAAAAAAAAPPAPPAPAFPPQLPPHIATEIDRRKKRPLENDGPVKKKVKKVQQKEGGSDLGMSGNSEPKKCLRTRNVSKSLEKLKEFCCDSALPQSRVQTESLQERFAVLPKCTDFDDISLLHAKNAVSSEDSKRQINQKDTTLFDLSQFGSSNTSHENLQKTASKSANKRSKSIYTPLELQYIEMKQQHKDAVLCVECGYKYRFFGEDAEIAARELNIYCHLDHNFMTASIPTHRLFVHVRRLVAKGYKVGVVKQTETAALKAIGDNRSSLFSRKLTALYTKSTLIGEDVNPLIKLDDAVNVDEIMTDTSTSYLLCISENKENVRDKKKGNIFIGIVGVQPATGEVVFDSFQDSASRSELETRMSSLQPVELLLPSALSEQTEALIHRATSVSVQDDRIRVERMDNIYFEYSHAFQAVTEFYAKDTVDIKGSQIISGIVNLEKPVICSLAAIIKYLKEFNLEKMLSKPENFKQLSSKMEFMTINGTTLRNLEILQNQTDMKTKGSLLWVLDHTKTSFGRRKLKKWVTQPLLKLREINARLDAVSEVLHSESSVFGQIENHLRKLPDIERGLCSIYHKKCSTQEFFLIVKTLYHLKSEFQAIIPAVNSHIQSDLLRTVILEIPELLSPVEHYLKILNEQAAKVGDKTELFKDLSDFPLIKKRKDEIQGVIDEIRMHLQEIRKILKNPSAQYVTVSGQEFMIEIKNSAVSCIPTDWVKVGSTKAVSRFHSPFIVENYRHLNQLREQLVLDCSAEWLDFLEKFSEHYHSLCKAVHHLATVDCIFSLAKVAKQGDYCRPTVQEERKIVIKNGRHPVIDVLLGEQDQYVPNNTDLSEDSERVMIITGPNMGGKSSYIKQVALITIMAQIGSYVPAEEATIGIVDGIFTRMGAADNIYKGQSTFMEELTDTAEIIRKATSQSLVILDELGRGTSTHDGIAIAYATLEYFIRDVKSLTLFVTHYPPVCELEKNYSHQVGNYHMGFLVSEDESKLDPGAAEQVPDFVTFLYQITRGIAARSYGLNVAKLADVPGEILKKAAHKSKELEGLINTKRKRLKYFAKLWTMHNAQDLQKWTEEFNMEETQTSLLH
UniProt P43246: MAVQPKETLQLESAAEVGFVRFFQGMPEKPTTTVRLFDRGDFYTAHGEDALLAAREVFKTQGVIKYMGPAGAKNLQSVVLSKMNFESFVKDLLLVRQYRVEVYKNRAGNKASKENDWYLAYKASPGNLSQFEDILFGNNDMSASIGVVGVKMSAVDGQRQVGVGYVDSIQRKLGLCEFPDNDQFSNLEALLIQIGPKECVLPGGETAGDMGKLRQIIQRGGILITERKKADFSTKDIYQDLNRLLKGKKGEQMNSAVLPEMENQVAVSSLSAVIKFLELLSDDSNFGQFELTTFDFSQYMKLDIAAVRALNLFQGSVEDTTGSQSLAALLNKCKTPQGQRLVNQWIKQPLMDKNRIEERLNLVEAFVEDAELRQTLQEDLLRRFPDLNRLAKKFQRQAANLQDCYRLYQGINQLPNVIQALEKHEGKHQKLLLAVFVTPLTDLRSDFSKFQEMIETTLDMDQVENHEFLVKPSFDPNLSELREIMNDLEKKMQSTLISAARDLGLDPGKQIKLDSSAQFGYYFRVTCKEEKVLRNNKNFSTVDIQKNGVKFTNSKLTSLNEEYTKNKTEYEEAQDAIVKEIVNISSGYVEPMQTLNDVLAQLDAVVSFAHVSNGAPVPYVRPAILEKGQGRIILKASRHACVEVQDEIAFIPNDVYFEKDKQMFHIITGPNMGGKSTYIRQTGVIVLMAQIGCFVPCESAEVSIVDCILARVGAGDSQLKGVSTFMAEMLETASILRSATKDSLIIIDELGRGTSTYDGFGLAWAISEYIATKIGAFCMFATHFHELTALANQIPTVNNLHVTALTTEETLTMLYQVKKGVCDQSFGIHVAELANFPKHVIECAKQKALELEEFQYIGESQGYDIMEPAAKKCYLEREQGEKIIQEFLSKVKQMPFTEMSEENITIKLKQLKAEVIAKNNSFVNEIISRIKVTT

Biological target: 3x-Flag-tagged DNA2 (human) (UniProt P51530)
Experiment: co-IP; whole-cell lysates (0.5% Nonidet P-40, 50 mM Tris-HCl, 0.1 mM EDTA, 150 mM NaCl) with an antibody against a specific protein and Protein A/G magnetic beads; wash with 500 mM NaCl; western blot; IP of DNA2 (Fig. 2c) and IP of MSH2 (Fig. 2d)

binding	Substance
no binding	MSH3 (from UniProt P20585 1-1137)
binds	MutSα (MSH2-MSH6) (from UniProt P43246 1-934; P52701 1-1360) (complex)
